Reference: US5849525A, “Compositions corresponding to a proton-coupled peptide transporter and methods of making and using same” (Brigham and Women's Hospital, Inc., priority 1995, dated 1998)
“Also recorded” adds a separate entry of the source.

Target: T1, proton-coupled peptide transporter (Oryctolagus cuniculus, UniProt P36836)
T1 construct: Xenopus laevis oocytes were injected with cRNA coding the proton-coupled peptide transporter; expressed in transfected cells; host or cells: Xenopus laevis oocytes injected with cRNA transcribed in vitro from the cloned cDNA
T1 sequence (P36836 1-707): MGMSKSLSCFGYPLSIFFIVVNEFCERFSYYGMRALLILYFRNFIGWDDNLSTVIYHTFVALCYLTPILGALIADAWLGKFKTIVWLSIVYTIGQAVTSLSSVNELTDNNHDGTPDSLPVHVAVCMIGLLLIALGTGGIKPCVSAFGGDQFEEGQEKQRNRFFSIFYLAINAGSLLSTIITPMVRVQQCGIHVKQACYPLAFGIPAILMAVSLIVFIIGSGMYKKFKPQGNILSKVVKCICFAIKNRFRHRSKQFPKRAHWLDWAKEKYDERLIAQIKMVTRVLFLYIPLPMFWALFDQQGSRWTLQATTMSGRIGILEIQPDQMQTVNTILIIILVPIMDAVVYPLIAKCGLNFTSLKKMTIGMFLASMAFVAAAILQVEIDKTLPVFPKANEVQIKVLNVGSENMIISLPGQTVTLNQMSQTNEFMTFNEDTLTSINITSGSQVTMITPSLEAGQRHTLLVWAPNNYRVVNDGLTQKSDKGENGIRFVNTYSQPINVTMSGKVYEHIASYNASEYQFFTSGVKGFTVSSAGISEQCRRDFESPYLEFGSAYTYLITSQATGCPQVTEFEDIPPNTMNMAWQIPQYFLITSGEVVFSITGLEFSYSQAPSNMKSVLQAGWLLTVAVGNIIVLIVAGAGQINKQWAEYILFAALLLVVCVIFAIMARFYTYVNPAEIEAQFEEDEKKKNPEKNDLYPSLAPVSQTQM
Experiment: Two-electrode voltage clamp of Xenopus laevis oocytes injected with transporter cRNA: substrate-evoked inward currents and Km
Format: cell-based, rabbit
Details: uptake solution pH 5.5
Source text: These oocytes were subjected to two electrode voltages clamp analysis (Gene Clamp 500, Axon Instruments, California) in the manner described in Kanaisy & Hediger, M. A. Nature 360, 467-71 (1992).
FIG. 9 depicts electrophysiological measurements of transformed cocytes as a percent of glycyl-sarcosine evoked current. Data representing glycyl-sarcosine are depicted as a solid black bar. Data representing peptide are depicted with dotted bars. Data representing antibiotics are depicted with hatched bars.
By altering peptide concentrations, current amplitudes for different compositions, Km values were determined.

For `CC1=C(C(=O)O)N2C(=O)[C@@H](NC(=O)[C@H](N)c3ccccc3)[C@H]2SC1` [Cephalexin], the substrate-evoked inward current was “Significant currents; also recorded: weakest current”.
